These are yes or no findings as the source states them, for the method shown. For some of these results: In cells and extracts the contact can be indirect. Some entries that bind do so weakly or less than the wild type. For some of these results: Tags and fused reporters may be left off the sequences shown.
How the values were obtained:
[1] = biological target: T1, BRAP-CTD (84–354 aa of human BRAP) fused with the GAL4 DNA binding domain and a c-Myc epitope tag (pGBKT7-BRAP-CTD) (human) (UniProt Q6UWU4); assay: two-hybrid; Matchmaker Gold yeast two-hybrid library screen: Y2HGold with bait pGBKT7-BRAP-CTD mated with Y187 with normalized universal human Mate & Plate Library; diploids grown on SD/–Leu/–Trp at 30°C for 3 d, replica-plated onto SD/–Ade/–His/–Leu/–Trp with X-α-Gal; blue colonies sequenced
T1 sequence: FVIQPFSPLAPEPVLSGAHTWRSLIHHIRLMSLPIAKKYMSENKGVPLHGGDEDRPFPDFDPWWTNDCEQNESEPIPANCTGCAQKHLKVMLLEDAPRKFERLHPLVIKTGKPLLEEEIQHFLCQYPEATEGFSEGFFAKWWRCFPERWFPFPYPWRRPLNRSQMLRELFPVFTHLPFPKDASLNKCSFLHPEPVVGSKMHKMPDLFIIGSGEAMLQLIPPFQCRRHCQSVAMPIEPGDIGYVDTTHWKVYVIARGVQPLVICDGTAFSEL

[2] = biological target: ATG5, endogenous in 16HBE14o- cells (human (endogenous in 16HBE14o-)) (UniProt Q9H1Y0); assay: co-IP; endogenous proteins in 16HBE14o- lysate (RIPA buffer); 1 μg of anti-ATG5 or anti-BRAP antibody and Protein A Dynabeads, 4°C overnight; washed with NP-40 buffer; immunoblot
[3] = biological target: GST-tagged recombinant ATG5 (pGEX4T1-ATG5) (UniProt Q9H1Y0); assay: pull-down; GST-tagged ATG5 from E. coli lysate bound to glutathione agarose resin and washed, then incubated with E. coli lysate containing MBP-tagged BRAP-CTD for 1 h at 4°C; washed in PBS; immunoblot with anti-BRAP; only the target purified

B1: ATG5 fragment 1–142 aa (library clone of the yeast two-hybrid screen) (domain or fragment, UniProt Q9H1Y0 1-142)
chain: MTDDKDVLRDVWFGRIPTCFTLYQDEITEREAEPYYLLLPRVSYLTLVTDKVKKHFQKVMRQEDISEIWFEYEGTPLKWHYPIGLLFDLLASSSALPWNITVHFKSFPEKDLLHCPSKDAIEAHFMSCMKEADALKHKSQVI
**Q.** For B1, which binding [1] is on record?
**A.** binds

B2: ATG5 fragment 1–158 aa (library clone of the yeast two-hybrid screen) (domain or fragment, UniProt Q9H1Y0 1-158)
chain: MTDDKDVLRDVWFGRIPTCFTLYQDEITEREAEPYYLLLPRVSYLTLVTDKVKKHFQKVMRQEDISEIWFEYEGTPLKWHYPIGLLFDLLASSSALPWNITVHFKSFPEKDLLHCPSKDAIEAHFMSCMKEADALKHKSQVINEMQKKDHKQLWMGLQ
**Q.** For B2, which binding [1] is on record?
**A.** binds

B3: ATG5 fragment 1–167 aa (library clone of the yeast two-hybrid screen) (domain or fragment, UniProt Q9H1Y0 1-167)
chain: MTDDKDVLRDVWFGRIPTCFTLYQDEITEREAEPYYLLLPRVSYLTLVTDKVKKHFQKVMRQEDISEIWFEYEGTPLKWHYPIGLLFDLLASSSALPWNITVHFKSFPEKDLLHCPSKDAIEAHFMSCMKEADALKHKSQVINEMQKKDHKQLWMGLQNDRFDQFWA
**Q.** For B3, which binding [1] is on record?
**A.** binds

B4: ATG5 fragment 1–161 aa (library clone of the yeast two-hybrid screen) (domain or fragment, UniProt Q9H1Y0 1-161)
chain: MTDDKDVLRDVWFGRIPTCFTLYQDEITEREAEPYYLLLPRVSYLTLVTDKVKKHFQKVMRQEDISEIWFEYEGTPLKWHYPIGLLFDLLASSSALPWNITVHFKSFPEKDLLHCPSKDAIEAHFMSCMKEADALKHKSQVINEMQKKDHKQLWMGLQNDR
**Q.** Which binding [1] does the source give for B4 here?
**A.** binds

B5: ATG5 fragment 1–165 aa (library clone of the yeast two-hybrid screen) (domain or fragment, UniProt Q9H1Y0 1-165)
chain: MTDDKDVLRDVWFGRIPTCFTLYQDEITEREAEPYYLLLPRVSYLTLVTDKVKKHFQKVMRQEDISEIWFEYEGTPLKWHYPIGLLFDLLASSSALPWNITVHFKSFPEKDLLHCPSKDAIEAHFMSCMKEADALKHKSQVINEMQKKDHKQLWMGLQNDRFDQF
**Q.** Which binding [1] does the source give for B5 here?
**A.** binds

B6: Bombesin receptor–activated protein (BRAP), endogenous in 16HBE14o- cells (protein, UniProt Q6UWU4-2 1-354)
chain: MDFILEDMDLAANEISIYDKLSETVDLVRQTGHQCGMSEKAIEKFIRQLLEKNEPQRPPPQYPLLIVVYKVLATLGLILLTAYFVIQPFSPLAPEPVLSGAHTWRSLIHHIRLMSLPIAKKYMSENKGVPLHGGDEDRPFPDFDPWWTNDCEQNESEPIPANCTGCAQKHLKVMLLEDAPRKFERLHPLVIKTGKPLLEEEIQHFLCQYPEATEGFSEGFFAKWWRCFPERWFPFPYPWRRPLNRSQMLRELFPVFTHLPFPKDASLNKCSFLHPEPVVGSKMHKMPDLFIIGSGEAMLQLIPPFQCRRHCQSVAMPIEPGDIGYVDTTHWKVYVIARGVQPLVICDGTAFSEL
**Q.** Which binding [2] does the source give for B6 here?
**A.** binds

B7: MBP-tagged BRAP-CTD (pMAL-BRAP-CTD) (domain or fragment, UniProt Q6UWU4-2 84-354)
chain: T1 sequence
**Q.** How did the binding [3] turn out when B7 was run?
**A.** binds

— article PMC9275683
